Assay results reported in the supplement of paper PMC6411743.
± gives the standard deviation of the averaged measurements. The entries are a selection whose mix differs from that of the whole data set.

Protein sequences, listed by entry. Tags and fused reporters are not part of them. Lines headed by an entry give the natural chain unless they say otherwise; changes in a name come on top.
UniProt O15258: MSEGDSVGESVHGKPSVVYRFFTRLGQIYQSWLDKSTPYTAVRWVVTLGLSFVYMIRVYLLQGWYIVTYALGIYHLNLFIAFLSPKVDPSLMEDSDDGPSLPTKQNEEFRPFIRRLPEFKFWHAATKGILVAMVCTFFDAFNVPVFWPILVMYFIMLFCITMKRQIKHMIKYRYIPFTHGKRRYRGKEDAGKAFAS
UniProt P42330: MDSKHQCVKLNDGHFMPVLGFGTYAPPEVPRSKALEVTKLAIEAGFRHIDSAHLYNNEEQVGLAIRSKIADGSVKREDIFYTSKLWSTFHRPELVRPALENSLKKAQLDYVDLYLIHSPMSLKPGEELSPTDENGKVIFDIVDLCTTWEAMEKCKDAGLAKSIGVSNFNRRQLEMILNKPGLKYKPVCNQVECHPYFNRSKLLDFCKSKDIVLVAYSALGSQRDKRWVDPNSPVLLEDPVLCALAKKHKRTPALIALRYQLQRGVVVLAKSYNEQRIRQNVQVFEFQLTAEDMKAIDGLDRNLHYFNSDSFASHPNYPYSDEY
UniProt Q6NVY1: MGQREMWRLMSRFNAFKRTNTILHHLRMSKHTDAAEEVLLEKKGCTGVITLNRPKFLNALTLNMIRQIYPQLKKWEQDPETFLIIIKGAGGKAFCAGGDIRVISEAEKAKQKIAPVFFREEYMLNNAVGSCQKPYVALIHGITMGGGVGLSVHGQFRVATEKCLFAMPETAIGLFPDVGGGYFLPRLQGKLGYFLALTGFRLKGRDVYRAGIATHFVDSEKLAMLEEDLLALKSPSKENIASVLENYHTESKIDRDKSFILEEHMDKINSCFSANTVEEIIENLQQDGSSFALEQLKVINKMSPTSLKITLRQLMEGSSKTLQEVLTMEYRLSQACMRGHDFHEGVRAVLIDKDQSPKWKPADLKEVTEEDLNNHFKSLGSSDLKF
UniProt P38571: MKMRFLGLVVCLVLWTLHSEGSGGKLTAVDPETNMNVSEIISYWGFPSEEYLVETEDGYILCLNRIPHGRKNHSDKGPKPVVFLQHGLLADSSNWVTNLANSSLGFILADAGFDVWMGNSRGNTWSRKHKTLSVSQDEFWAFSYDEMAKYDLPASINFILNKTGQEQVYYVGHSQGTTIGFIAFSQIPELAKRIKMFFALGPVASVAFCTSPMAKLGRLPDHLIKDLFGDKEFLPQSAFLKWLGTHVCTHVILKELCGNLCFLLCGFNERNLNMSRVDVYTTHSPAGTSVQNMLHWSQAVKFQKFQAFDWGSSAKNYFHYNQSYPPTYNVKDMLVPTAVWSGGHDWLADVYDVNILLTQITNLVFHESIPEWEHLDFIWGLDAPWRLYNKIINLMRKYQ
UniProt Q14114: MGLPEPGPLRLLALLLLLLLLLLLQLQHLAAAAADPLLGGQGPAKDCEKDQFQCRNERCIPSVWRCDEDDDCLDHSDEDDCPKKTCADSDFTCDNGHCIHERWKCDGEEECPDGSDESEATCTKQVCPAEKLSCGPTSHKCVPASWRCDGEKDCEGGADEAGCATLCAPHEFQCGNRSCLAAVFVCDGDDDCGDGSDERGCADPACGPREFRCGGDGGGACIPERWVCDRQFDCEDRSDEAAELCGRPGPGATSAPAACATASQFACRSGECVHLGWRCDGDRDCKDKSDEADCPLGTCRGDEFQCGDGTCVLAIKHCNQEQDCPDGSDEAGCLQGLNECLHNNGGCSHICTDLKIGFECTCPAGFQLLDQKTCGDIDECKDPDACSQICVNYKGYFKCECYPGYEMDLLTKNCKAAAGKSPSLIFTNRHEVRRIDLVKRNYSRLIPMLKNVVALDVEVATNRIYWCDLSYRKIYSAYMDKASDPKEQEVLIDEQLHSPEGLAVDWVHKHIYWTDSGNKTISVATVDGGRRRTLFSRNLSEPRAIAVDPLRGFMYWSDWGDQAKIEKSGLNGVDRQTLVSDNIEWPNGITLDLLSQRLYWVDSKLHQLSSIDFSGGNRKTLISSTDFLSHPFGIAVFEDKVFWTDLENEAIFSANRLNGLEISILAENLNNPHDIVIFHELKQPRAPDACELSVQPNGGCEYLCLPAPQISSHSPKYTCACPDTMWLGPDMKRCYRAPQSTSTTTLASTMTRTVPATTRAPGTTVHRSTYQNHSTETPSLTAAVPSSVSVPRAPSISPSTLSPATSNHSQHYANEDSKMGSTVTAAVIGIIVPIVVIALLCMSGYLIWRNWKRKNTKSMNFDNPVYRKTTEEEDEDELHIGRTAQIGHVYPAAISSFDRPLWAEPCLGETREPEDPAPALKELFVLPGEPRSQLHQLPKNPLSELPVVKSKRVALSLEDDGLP
UniProt Q9Y4E1, whole entry: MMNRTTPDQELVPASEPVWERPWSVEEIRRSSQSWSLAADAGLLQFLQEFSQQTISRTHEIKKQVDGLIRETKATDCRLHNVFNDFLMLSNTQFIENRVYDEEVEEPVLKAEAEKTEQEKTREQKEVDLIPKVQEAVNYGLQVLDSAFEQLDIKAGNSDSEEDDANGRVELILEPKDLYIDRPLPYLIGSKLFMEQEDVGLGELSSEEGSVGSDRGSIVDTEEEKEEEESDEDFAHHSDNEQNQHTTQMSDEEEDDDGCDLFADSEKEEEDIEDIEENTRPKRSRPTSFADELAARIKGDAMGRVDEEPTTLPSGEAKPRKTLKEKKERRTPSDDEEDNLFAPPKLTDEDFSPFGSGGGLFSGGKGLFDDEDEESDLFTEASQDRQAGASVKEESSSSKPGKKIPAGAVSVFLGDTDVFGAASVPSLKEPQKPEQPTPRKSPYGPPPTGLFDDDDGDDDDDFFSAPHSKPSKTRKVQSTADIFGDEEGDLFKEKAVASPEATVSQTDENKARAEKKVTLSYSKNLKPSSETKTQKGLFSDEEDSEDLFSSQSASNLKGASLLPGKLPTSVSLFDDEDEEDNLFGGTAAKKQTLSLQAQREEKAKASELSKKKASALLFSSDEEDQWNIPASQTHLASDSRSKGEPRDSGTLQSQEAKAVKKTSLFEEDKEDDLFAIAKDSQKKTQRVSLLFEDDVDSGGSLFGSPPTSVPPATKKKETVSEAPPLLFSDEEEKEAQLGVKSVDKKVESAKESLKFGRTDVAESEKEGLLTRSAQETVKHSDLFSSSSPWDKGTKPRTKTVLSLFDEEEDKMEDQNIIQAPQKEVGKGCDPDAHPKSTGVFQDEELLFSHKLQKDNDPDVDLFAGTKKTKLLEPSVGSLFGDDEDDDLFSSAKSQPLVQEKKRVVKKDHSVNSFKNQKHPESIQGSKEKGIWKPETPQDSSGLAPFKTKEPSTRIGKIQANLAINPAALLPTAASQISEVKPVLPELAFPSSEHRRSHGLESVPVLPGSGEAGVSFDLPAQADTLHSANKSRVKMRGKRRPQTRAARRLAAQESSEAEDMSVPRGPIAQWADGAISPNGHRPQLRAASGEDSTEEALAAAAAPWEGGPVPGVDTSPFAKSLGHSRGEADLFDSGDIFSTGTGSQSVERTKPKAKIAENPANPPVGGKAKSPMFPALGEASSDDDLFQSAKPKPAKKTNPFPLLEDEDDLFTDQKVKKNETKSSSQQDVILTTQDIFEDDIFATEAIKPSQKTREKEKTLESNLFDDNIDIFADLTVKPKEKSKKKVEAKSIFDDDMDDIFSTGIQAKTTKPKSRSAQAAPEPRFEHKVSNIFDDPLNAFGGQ
UniProt O75352: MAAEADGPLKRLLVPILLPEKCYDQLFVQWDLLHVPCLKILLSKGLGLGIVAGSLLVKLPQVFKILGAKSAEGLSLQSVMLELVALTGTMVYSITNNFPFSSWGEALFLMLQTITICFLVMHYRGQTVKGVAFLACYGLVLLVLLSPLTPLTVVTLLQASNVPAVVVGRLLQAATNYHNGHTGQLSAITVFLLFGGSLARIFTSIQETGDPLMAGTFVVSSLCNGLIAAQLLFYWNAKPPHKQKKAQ
UniProt Q8TEH3: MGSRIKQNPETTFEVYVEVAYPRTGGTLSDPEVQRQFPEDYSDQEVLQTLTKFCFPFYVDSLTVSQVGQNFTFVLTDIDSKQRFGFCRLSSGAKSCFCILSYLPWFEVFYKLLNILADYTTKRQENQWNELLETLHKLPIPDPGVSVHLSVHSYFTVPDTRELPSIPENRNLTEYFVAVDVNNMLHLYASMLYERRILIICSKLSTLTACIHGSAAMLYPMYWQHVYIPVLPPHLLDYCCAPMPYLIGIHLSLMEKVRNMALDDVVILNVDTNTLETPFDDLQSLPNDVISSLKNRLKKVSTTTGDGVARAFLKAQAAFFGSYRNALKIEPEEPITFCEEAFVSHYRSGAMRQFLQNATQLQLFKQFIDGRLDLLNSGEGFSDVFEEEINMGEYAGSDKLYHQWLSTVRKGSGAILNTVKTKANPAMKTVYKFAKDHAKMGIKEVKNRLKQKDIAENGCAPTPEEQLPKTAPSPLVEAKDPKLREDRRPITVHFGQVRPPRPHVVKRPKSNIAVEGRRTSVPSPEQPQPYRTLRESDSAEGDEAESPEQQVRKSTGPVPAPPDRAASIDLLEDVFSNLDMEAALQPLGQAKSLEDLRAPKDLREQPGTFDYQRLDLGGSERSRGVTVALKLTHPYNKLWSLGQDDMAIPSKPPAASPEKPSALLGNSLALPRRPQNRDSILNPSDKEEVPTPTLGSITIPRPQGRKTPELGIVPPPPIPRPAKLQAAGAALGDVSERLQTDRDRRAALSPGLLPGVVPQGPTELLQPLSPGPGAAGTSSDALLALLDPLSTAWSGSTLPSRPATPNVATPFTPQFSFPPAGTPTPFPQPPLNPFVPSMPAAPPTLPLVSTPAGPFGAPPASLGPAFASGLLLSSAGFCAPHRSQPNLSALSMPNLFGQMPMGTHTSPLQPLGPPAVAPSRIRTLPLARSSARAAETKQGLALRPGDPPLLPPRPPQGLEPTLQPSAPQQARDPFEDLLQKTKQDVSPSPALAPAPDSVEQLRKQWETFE
UniProt Q9NZM3: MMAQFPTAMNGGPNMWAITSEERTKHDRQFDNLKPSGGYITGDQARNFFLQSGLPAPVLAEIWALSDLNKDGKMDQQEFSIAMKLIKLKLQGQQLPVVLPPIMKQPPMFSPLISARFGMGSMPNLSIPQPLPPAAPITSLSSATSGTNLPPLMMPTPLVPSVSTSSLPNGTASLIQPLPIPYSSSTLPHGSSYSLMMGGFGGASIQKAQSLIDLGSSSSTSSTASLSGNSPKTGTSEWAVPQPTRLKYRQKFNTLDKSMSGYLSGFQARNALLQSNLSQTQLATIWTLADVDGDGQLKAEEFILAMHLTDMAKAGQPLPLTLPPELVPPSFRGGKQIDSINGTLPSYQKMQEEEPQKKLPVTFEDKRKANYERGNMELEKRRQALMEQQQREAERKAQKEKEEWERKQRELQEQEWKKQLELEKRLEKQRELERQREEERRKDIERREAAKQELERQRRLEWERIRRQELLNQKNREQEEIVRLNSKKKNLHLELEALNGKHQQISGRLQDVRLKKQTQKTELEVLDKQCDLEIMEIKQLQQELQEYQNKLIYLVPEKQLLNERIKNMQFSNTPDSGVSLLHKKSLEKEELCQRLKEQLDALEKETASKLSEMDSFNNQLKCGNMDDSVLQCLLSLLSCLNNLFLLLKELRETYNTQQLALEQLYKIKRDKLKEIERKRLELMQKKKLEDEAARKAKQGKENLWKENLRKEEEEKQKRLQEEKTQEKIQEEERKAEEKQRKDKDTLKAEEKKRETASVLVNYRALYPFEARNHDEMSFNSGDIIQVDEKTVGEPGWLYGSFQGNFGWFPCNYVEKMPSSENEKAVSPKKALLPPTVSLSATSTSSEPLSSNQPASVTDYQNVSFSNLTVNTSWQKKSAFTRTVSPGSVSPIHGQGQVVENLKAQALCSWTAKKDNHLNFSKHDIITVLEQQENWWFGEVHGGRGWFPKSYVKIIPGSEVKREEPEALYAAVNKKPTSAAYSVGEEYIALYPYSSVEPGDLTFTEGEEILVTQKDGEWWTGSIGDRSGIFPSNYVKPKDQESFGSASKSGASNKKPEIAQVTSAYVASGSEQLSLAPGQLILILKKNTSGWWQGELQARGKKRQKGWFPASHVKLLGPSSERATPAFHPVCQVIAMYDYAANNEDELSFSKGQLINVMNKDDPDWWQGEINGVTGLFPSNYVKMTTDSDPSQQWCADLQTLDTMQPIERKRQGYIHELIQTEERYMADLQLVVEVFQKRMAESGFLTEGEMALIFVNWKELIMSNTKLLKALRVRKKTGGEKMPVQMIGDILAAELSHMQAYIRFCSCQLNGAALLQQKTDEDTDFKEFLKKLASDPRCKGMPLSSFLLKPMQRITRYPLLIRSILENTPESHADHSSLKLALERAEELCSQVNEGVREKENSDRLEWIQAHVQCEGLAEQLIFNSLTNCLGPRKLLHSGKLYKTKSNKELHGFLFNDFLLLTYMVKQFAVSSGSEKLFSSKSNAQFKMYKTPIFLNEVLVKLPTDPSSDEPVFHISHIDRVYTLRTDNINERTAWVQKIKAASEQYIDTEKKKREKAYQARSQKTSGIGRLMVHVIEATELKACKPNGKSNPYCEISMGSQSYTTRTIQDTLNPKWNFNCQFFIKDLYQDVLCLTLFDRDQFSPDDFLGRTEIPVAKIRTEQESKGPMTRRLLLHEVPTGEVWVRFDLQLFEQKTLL

Compound: Nc1ncnc2c1ncn2[C@@H]1O[C@H](COP(=O)(O)OP(=O)(O)OP(=O)(O)O)[C@@H](O)[C@H]1O [adenosine triphosphate]
Test: NP40-soluble protein abundance relative to vehicle (solubility fold change) (ratio); higher = more soluble protein in presence of ATP
In short: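 Jurkat crude lysate prepared with a Dounce homogeniser was treated at eight concentrations spanning 0.1 to 10 mM, 10 min at room temperature then 3 min at 37 °C. Solubilisation with 0.8% NP40 and benzonase and ultracentrifugation preceded TMT labelling of the supernatant for LC-MS/MS. Fold change against the detergent-processed vehicle was determined per replicate from vsn-normalised intensities, across three independent experiments.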

Target	NP40-soluble protein abundance (concentration: 1mM)	NP40-soluble protein abundance (concentration: 2mM)	NP40-soluble protein abundance (concentration: 4mM)	NP40-soluble protein abundance (concentration: 6mM)	NP40-soluble protein abundance (concentration: 8mM)	NP40-soluble protein abundance (concentration: 10mM)
A0A087WWH3|Q9NZM4 and related entries (UniProt Q9NZM4)	1.04 ± 0.14	1.09 ± 0.087	1.06 ± 0.099	1.15 ± 0.17	1.04 ± 0.087	0.991 ± 0.08
A0A0A0MR06|O15258 and related entries (UniProt O15258)	0.909 ± 0.081	0.954 ± 0.04	0.918 ± 0.066	0.921 ± 0.056	0.857 ± 0.034	1 ± 0.025
A0A087WU62|A0A087X2D5|A0A0G2JMS5|Q9BRJ2 (UniProt Q9BRJ2)	1.08 ± 0.091	0.961 ± 0.086	0.977 ± 0.089	0.995 ± 0.19	1.03 ± 0.17	0.969 ± 0.12
A0A0C4DGG9|Q14839 and related entries (UniProt Q14839)	1.04 ± 0.012	1.013 ± 0.0054	1.01 ± 0.014	1.02 ± 0.013	1.06 ± 0.017	1.04 ± 0.026
A0A0A0MRJ0|Q5VT25 and related entries (UniProt Q5VT25)	1.26 ± 0.12	1.29 ± 0.093	1.47 ± 0.15	1.53 ± 0.21	1.44 ± 0.17	1.49 ± 0.16
A0A087WSW9|A0A087WSY9|Q16881 and related entries (UniProt Q16881)	0.997 ± 0.044	0.979 ± 0.04	0.946 ± 0.036	0.931 ± 0.11	0.967 ± 0.047	0.95 ± 0.041
A0A087WWM4|F8WAN9 and related entries (UniProt Q9P2T1)	0.969 ± 0.042	0.949 ± 0.035	0.925 ± 0.048	0.9235 ± 0.007	0.938 ± 0.028	0.938 ± 0.05
A0A0A0MTD5|Q8IYU8 (UniProt Q8IYU8)	1.07 ± 0.32	1.16 ± 0.14	1.1 ± 0.12	1.01 ± 0.1	1.07 ± 0.11	1.01 ± 0.17
A0A087WV73|P46087 and related entries (UniProt P46087)	1.13 ± 0.076	1.21 ± 0.059	1.32 ± 0.047	1.41 ± 0.11	1.44 ± 0.084	1.55 ± 0.083
A0A075B746|P82921 (UniProt P82921)	1.04 ± 0.14	0.975 ± 0.048	1 ± 0.081	0.899 ± 0.11	1.01 ± 0.19	0.882 ± 0.089
A0A0A0MSS8|P42330 and related entries (UniProt P42330)	0.983 ± 0.037	1.02 ± 0.056	0.976 ± 0.083	0.951 ± 0.12	0.953 ± 0.028	0.966 ± 0.072
A0A0C4DFM1|Q92544 (UniProt Q92544)	1.12 ± 0.11	1.05 ± 0.12	1.03 ± 0.13	0.997 ± 0.14	1.03 ± 0.1	0.988 ± 0.058
A0A087WXI1|Q6NVY1 (UniProt Q6NVY1)	1.01 ± 0.037	0.981 ± 0.053	0.967 ± 0.028	0.973 ± 0.091	0.968 ± 0.056	0.949 ± 0.059
A0A0A0MT32|P38571 and related entries (UniProt P38571)	0.899 ± 0.056	0.904 ± 0.021	0.823 ± 0.1	0.856 ± 0.03	0.794 ± 0.068	0.879 ± 0.047
A0A087WVN1|Q5JPI9 (UniProt Q5JPI9)	1.01 ± 0.028	1.06 ± 0.046	1.1 ± 0.11	1.09 ± 0.11	1.02 ± 0.065	1.03 ± 0.045
A0A087X020|Q9Y3A5 (UniProt Q9Y3A5)	0.998 ± 0.056	0.998 ± 0.05	1.02 ± 0.025	0.986 ± 0.071	1.02 ± 0.021	1.01 ± 0.026
A0A087WW84|Q14114-2|Q14114 and related entries (UniProt Q14114)	1.02 ± 0.039	0.99188 ± 0.00099	1.02 ± 0.066	1.01 ± 0.075	0.972 ± 0.082	0.994 ± 0.063
A0A096LPC5|A0A0A0MR88|Q9Y4E1-4|Q9Y4E1-6 (UniProt Q9Y4E1)	0.9861 ± 0.0043	0.953 ± 0.035	0.969 ± 0.069	0.962 ± 0.038	0.922 ± 0.045	0.978 ± 0.019
A0A087WT59|A0A087WV45|P02766 (UniProt P02766)	0.918 ± 0.12	0.919 ± 0.056	0.887 ± 0.067	0.891 ± 0.1	0.878 ± 0.014	0.848 ± 0.11
A0A087WV81|I3L295 and related entries (UniProt Q9H3L2+O75352+Q1HDL3+J3QS48+I3L1D2+J3QW43+J3QRD5+J3KT75+I3L295)	0.943 ± 0.01	0.938 ± 0.014	0.9687 ± 0.0094	0.975 ± 0.072	0.9303 ± 0.0046	0.879 ± 0.024
A0A096LP25|Q2M2I8 and related entries (UniProt Q2M2I8)	1.01 ± 0.023	1.02 ± 0.013	1.016 ± 0.0055	1.01 ± 0.017	0.997 ± 0.011	1 ± 0.013
A0A0A0MS49|Q8TEH3 (UniProt Q8TEH3)	1.04 ± 0.062	1.1 ± 0.036	1.08 ± 0.074	1.09 ± 0.042	1.04 ± 0.053	1.08 ± 0.033
A0A0A6YYL2|P0DMM9 and related entries (UniProt P0DMN0+P0DMM9)	1.01 ± 0.13	1.01 ± 0.057	0.992 ± 0.068	0.98 ± 0.083	0.994 ± 0.081	0.965 ± 0.035
A0A0A6YY92|P30566 (UniProt P30566)	0.995 ± 0.058	0.987 ± 0.04	0.946 ± 0.044	0.959 ± 0.052	0.968 ± 0.052	0.96 ± 0.042
A0A0A0MTP3|Q99550 and related entries (UniProt Q99550)	0.874 ± 0.051	0.922 ± 0.09	0.849 ± 0.022	0.796 ± 0.14	0.864 ± 0.033	0.959 ± 0.051
A0A0C4DGA2|O75521 and related entries (UniProt O75521)	1.01 ± 0.04	0.997 ± 0.016	0.973 ± 0.037	1.01 ± 0.023	0.976 ± 0.043	0.992 ± 0.037
A0A0A0MT23 (UniProt P27448)	1.14 ± 0.014	1.12 ± 0.044	1.11 ± 0.033	1.06 ± 0.038	1.1 ± 0.039	1.08 ± 0.047
A0A087WVF7|F8W719 and related entries (UniProt Q9NZM3)	0.965 ± 0.051	0.991 ± 0.03	0.972 ± 0.042	0.989 ± 0.036	0.94 ± 0.027	0.972 ± 0.03
A0A087WYS9|Q15526 and related entries (UniProt Q15526)	0.988 ± 0.034	0.973 ± 0.046	0.954 ± 0.061	0.973 ± 0.074	0.975 ± 0.031	0.939 ± 0.082
